Some of these results come from one statement about several compounds together.
Experiments:
[1] = test system: fumonisin FB1 production of Fusarium proliferatum; experiment: Inhibition of fumonisin FB1 production of Fusarium proliferatum; format: cell-based; settings: 5 days, 20° C., vs control without compound
[2] = test system: DON/Acetyl-DON production of Fusarium graminearum; format: cell-based

| SMILES | % inhibition at 50 μM FB1 [1] | % inhibition at 50 μM DON/AcDON [2] |
| --- | --- | --- |
| Nc1cc(-c2[nH]c3cccnc3c2-c2ccc(F)cc2)ccn1 [Example 4] | < 50% | – |
| C=C=Cn1c(-c2ccncc2)c(-c2ccc(F)cc2)c2ncccc21 [Example 15] | – | < 50% |

— patent US20100273652A1 (priority 2009, published 2010)
